# Results from one PubChem assay

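Plate-reader measure of the Venus reporter marking one vaccinia stage in infected cells (the cell line is not named here); read time unknown.
The test concentration is not given here.
Percent change in Venus reporter signal; lower (more negative) values mean stronger inhibition of that viral stage.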

Values are in %.
How 0% and 100% were set is not given here.
Common to all entries: measured here: Venus reporter, other viral stage.
This is a side read-out of the assay, for part of the compounds, not drawn at random.

For CCCC#Cc1ccc([C@@H]2[C@@H](CO)N3CCCCN(S(=O)(=O)Cc4ccccc4)C[C@H]23)cc1 the result was activity change (Venus) -67.38%.
For C[C@@H]1CN([C@H](C)CO)C(=O)c2cc(NC(=O)Nc3ccc(C(F)(F)F)cc3)ccc2O[C@@H](C)CCCCO[C@H]1CN(C)S(C)(=O)=O the result was activity change (Venus) -50.45%.
For C[C@@H]1CN([C@@H](C)CO)C(=O)Cc2cc(N(C)C)ccc2O[C@H]1CN(C)Cc1ccc(Cl)c(Cl)c1 the result was activity change (Venus) -63.51%.
For COc1ccc(C#Cc2ccc([C@@H]3[C@@H](CO)N4CCCCN(C(=O)Nc5ccc(F)cc5)C[C@H]34)cc2)cc1 the result was activity change (Venus) -54.47%.
For COc1ccccc1-c1ccc2c(c1)[C@H]1[C@H](CCN1C(=O)C1CCC1)[C@@H](CO)N2 the result was activity change (Venus) -38.55%.
For CN1C(=O)c2cc(NC(=O)c3ccc(Cl)cc3)ccc2OC[C@@H]2O[C@H](CC(=O)NCc3cccc(F)c3)CC[C@@H]21 the result was activity change (Venus) -35.82%.
For N#C[C@@H]1[C@H](c2ccc(C#CC3CCCCC3)cc2)[C@@H](CO)N1C(=O)Nc1ccc(F)cc1 the result was activity change (Venus) -53.17%.
For N#Cc1cccc(-c2ccc3c(c2)[C@H]2[C@H](CCN2S(=O)(=O)c2cccc(F)c2)[C@@H](CO)N3)c1 the result was activity change (Venus) -52.41%.
For C[C@H]1CN([C@@H](C)CO)C(=O)c2c(c3ccccc3n2C)-c2ccccc2CO[C@@H]1CN(C)C(=O)CCN(C)C the result was activity change (Venus) -72.05%.
For Cc1noc(C)c1S(=O)(=O)Nc1ccc2c(c1)CC(=O)N([C@@H](C)CO)C[C@H](C)[C@H](CN(C)Cc1ccc(Cl)c(Cl)c1)O2 the result was activity change (Venus) -30.54%.
For CN1c2ccc(-c3cccc(C#N)c3)cc2[C@@H]2[C@@H](CCN2C(=O)c2ccc(F)cc2)[C@@H]1CO the result was activity change (Venus) -38.58%.
For Cc1ccc(S(=O)(=O)N(C)C[C@@H]2OCCCC[C@H](C)Oc3ccc(NS(=O)(=O)c4ccc(F)cc4)cc3C(=O)N([C@H](C)CO)C[C@@H]2C)cc1 the result was activity change (Venus) -40.91%.
For OC[C@@H]1[C@@H](c2ccc(/C=C/c3ccccc3)cc2)[C@@H]2CN(Cc3cccnc3)CCCCN12 the result was activity change (Venus) -69.08%.
For C[C@@H]1CN([C@H](C)CO)C(=O)c2cc(NS(=O)(=O)c3cccs3)ccc2O[C@@H](C)CCCCO[C@@H]1CN(C)S(=O)(=O)c1cccs1 the result was activity change (Venus) -21.57%.
For C[C@H](CO)N1C[C@H](C)[C@@H](CN(C)Cc2ccc(-c3ccccc3)cc2)Oc2ccc(N(C)C)cc2CC1=O the result was activity change (Venus) -45.84%.
For C[C@@H]1CCCCO[C@@H](CN(C)S(=O)(=O)c2ccc(Cl)cc2)[C@H](C)CN([C@H](C)CO)C(=O)c2cc(N(C)C)ccc2O1 the result was activity change (Venus) -27.69%.
For O=C(C1CCC1)N1CC(=O)N2[C@H](C1)[C@@H](c1ccc(C#Cc3cccc(F)c3)cc1)[C@@H]2CO the result was activity change (Venus) -51.87%.
For C/C=C/c1ccc([C@@H]2[C@H](CO)N[C@H]2CNS(=O)(=O)c2ccccc2)cc1 the result was activity change (Venus) -12.58%.
For C[C@@H]1CN([C@@H](C)CO)S(=O)(=O)c2ccc(C#CCN(C)C)cc2O[C@H]1CN(C)Cc1ccccc1F the result was activity change (Venus) -41.73%.
For C[C@H](CO)N1C[C@H](C)[C@@H](CN(C)CC2CCCCC2)OCCCC[C@H](C)Oc2ccc(NS(=O)(=O)c3ccccc3)cc2C1=O the result was activity change (Venus) -37.72%.
For C[C@@H]1CCCCO[C@@H](CN(C)C(=O)C2CCCCC2)[C@H](C)CN([C@@H](C)CO)C(=O)c2cc(NS(=O)(=O)c3ccc(F)cc3)ccc2O1 the result was activity change (Venus) -35.29%.
For C[C@@H]1CCCCO[C@H](CN(C)S(=O)(=O)c2ccc(F)cc2)[C@H](C)CN([C@@H](C)CO)C(=O)c2cc(NS(=O)(=O)c3ccc(Cl)cc3)ccc2O1 the result was activity change (Venus) -34.3%.

2 of the entries, repeated:

C[C@@H]1CN([C@@H](C)CO)S(=O)(=O)c2ccc(C#CCN(C)C)cc2O[C@H]1CN(C)Cc1ccccc1F read activity change (Venus) -41.73%.
CN1c2ccc(-c3cccc(C#N)c3)cc2[C@@H]2[C@@H](CCN2C(=O)c2ccc(F)cc2)[C@@H]1CO read activity change (Venus) -38.58%.

The results are deposited in PubChem (AID1053133; Broad Institute, 2014).